According to PubChem BioAssay AID529 (NMMLSC, 2006):
Hit rate of the full screen: of about 24,000 compounds, about 50 (0.2%) were called active. The inconclusive results got no clear call from the source; some entries with a clear call stand among them for comparison.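 The calls were made as follows: active = inhibition above 50%; inconclusive = compound itself fluorescent, judged against control cell fluorescence; inactive = the rest.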

By UniProt entry, the sequences of proteins in these tests, tags left out.
UniProt P13612, whole entry, looked up: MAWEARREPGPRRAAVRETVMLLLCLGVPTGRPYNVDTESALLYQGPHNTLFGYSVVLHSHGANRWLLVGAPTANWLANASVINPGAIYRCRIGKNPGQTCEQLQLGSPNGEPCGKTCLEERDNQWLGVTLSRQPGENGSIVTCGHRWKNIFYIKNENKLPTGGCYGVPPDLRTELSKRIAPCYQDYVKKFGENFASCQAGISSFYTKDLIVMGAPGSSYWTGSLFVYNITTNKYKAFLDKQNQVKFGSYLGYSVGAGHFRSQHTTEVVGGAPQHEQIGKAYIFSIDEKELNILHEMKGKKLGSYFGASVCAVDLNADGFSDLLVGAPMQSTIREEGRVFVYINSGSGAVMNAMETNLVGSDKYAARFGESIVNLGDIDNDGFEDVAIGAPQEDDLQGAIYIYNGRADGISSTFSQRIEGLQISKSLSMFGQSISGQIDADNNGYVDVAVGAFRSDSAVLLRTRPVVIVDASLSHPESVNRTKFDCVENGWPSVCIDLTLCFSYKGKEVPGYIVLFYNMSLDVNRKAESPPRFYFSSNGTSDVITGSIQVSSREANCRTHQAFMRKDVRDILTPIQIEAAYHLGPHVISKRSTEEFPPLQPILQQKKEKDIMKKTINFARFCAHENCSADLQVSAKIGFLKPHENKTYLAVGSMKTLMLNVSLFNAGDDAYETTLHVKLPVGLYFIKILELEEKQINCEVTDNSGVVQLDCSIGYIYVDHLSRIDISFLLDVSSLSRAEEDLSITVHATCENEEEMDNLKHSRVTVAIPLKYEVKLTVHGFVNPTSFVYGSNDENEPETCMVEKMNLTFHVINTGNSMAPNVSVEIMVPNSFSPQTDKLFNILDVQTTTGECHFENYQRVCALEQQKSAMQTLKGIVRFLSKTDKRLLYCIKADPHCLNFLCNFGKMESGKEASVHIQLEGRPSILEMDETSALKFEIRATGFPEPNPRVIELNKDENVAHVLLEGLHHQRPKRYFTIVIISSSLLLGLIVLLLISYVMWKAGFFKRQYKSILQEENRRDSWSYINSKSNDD

Each molecule was assayed against Integrin alpha-4 (Homo sapiens) (UniProt P13612) (assay: blockers of LDV-FITC ligand binding on VLA-4 – Jurkat cells, Mn2+ activated, primary screen (AID 529;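 as to inhibition: 0% = Mn2+ stimulated cells lacking compound and 100% = ligand binding without Mn2+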)). Conditions: LDV-FITC binding with Mn2+, flow cytometry; stronger effect = higher value, screened at 10 µM (by protocol), 100% = Mn2+-driven binding gain fully reversed unless noted.

SMILES	inhibition
CCCn1c(C)cc(=O)c2cc(NC(=O)c3cnccn3)ccc21	inconclusive
CCN(CC)CCNC(=O)c1cn(C)c2ccc(S(=O)(=O)N(C)C3CCCCC3)cc2c1=O	inconclusive
c1cc(CNc2ccc3c(c2)OCO3)ccn1	inconclusive
CC(C)(Oc1ccc(Cl)cc1)C(=O)NCc1ccncc1	inconclusive
Brc1cccc(-c2nnc3sc(CN4CCC5(CC4)OCCO5)cn23)c1	inconclusive
COc1ccc(N(CC(=O)N2CCc3ccccc3C2)S(=O)(=O)c2c(C)nn(C)c2C)cc1	inconclusive
Fc1ccc(Br)cc1C1C=C(c2ccc(Br)s2)Nc2ncnn21 (stereo not drawn)	inconclusive
O=C(NCc1ccccc1)N1CCn2c(nc3ccccc32)C1	inactive: -17.3%
O=C(NC1CCCC1)C1CC1c1ccccc1 (stereo not drawn)	inactive: -4.5%
CCC(=O)N1c2ccc(S(=O)(=O)CCC(=O)NC3CCCC3)cc2CC1C (stereo not drawn)	inconclusive
CCOC(=O)N1CCN(C(=O)C2CCN(C(=O)c3cc4sccc4n3CC)CC2)CC1	inconclusive
CN(C)c1nc(Nc2ccc(Cl)cc2)nc(OCC#N)n1	inactive: -15.5%
CCOC(=O)N1CCC(NC(=O)c2cccc3c2C(=O)N(c2ccc(OC)cc2)C3)CC1	inactive: 6%
COc1ccc(OC)c2[nH]c(=O)c(CCNC(=O)c3ccc(S(=O)(=O)N(C)C)cc3)cc12	inconclusive
Cc1ccc(S(=O)(=O)NCCC(=O)NC2CCCC2)cc1	inactive: 12%
Cc1cccc(N2CCN(S(=O)(=O)c3ccc4c(c3)n(C)c(=O)c(=O)n4C)CC2C)c1 (stereo not drawn)	inconclusive
CCOC(=O)CSC1=Nc2ccccc2C2=NC(CC(=O)NCc3ccc4c(c3)OCO4)C(=O)N12 (stereo not drawn)	inconclusive
CCOC(=O)c1sc(NC(=O)COC(=O)Cn2cnc3ccccc32)c(C(=O)OCC)c1C	inconclusive
CCOC(=O)c1sc2nc(CC(=O)OC)nc(NCc3ccco3)c2c1C	inconclusive
CCN1CCCC1CNC(=O)c1nn(-c2ccc(C)cc2)c(=O)c2c1c1ccccc1n2C (stereo not drawn)	inactive: 2%
COc1ccc(N2CCN(C(c3ccco3)c3sc4nc(C)nn4c3O)CC2)cc1 (stereo not drawn)	inconclusive
Fc1ccc(NCc2nnc(SCc3nnc(-c4ccccc4)o3)n2CC2CCCO2)cc1 (stereo not drawn)	inconclusive
CCCCN(C)S(=O)(=O)c1cc(Br)cc2c1N(C(=O)C1CC1)CC2	inconclusive
CCCN(CCC)CCNC(=O)C1CCN(Cc2nc(-c3ccc(Cl)cc3)oc2C)CC1	inactive: 20%
COc1cc2nc(NCC3CCCO3)n3nc(-c4cccnc4)nc3c2cc1OC (stereo not drawn)	inconclusive

SMILES	inhibition
O=C(NCc1cccs1)C1CCC(=O)N1C1CCCCC1 (stereo not drawn)	inactive: -9%
CCCOC(=O)C1=C(C)NC2=C(C(=O)C(C(=O)OC)C(C)C2)C1c1ccc(N(CC)CC)cc1 (stereo not drawn)	inconclusive
CCN1CCN(C(c2cccs2)C(C)NC(=O)c2cccc(OC)c2OC)CC1 (stereo not drawn)	inconclusive
O=C(Nc1ccccc1C(=O)NCCCn1ccnc1)c1ccccc1	inconclusive
Cc1cccc(OCC2=NS(=O)(=O)c3ccccc3N2)c1	inconclusive
O=C(CC1Oc2ccccc2NC1=O)NCc1ccc(Cl)cc1 (stereo not drawn)	inconclusive
CCOc1ccc(CCNC(=O)c2nnc(Cc3ccc(F)cc3)o2)cc1OCC	inconclusive
COC(=O)c1cc2sccc2n1CC(=O)Nc1cccc(SC)c1	inconclusive
COc1ccc(NC(=O)CCc2nc(-c3ccc(C)cc3)no2)cc1Cl	inconclusive
CCOC(=O)c1c(C2CCN(C(=O)OCC)CC2)nc2ccccn12	inconclusive
Cc1cc(NS(=O)(=O)c2ccc(NC(=O)CN3C(=O)c4ccccc4C3=O)cc2)nc(C)n1	inconclusive
COc1ccc(NC(=O)CN2CC(c3ccccc3)CC2=O)cc1OC (stereo not drawn)	inconclusive
CCC(C)(C(=O)NC1CCCC1)N(Cc1cccs1)C(C)=O (stereo not drawn)	inconclusive
O=C(Nc1nnc(-c2ccccc2Cl)o1)c1ccc(S(=O)(=O)N2CCCCCC2)cc1	inactive: -10%
COc1ccc2nc3oc(C(=O)N4CCC(C(N)=O)CC4)cc3cc2c1	inconclusive
O=C(CSc1nc2c(c(=O)n1-c1ccc(Cl)cc1)SCC2)NCC1CCCO1 (stereo not drawn)	inconclusive
CC1CCN(C(=O)c2cc(-c3ccccc3O)on2)CC1	inconclusive
c1ccc2c(-c3nc(C4CCCCC4)no3)cc(-c3ccncc3)nc2c1	inactive: -7.3%
COc1ccc(NC(=O)CSc2nc3ccccc3c(=O)n2-c2ccc3c(c2)OCO3)c(OC)c1	inconclusive
COC(=O)c1ccc2c(c1)NC(=O)C1CCCN21 (stereo not drawn)	inconclusive
CCOC(=O)N1CCN(C(=O)C2CCN(Cc3nc(-c4ccccc4C)oc3C)CC2)CC1	inconclusive
Cn1c(=O)cc(SCC(=O)NCC2COc3ccccc3O2)c2ccccc21 (stereo not drawn)	inconclusive
Cc1nc2sc(C(c3ccc(Cl)cc3)N3CC(C)OC(C)C3)c(O)n2n1 (stereo not drawn)	inconclusive
COc1ccccc1OCc1ccc(C(=O)Nc2ccncc2)o1	inactive: -18%
CCOc1ccc(-c2nc(-c3ccccc3)no2)cc1OCC	inconclusive

Part of the list above, in CSV form:
SMILES,inhibition
CCOC(=O)N1CCN(C(=O)C2CCN(C(=O)c3cc4sccc4n3CC)CC2)CC1,inconclusive
Cn1c(=O)cc(SCC(=O)NCC2COc3ccccc3O2)c2ccccc21 (stereo not drawn),inconclusive

(cont.)

SMILES	inhibition
Cc1ccc(C)c(NS(=O)(=O)c2c(C)nn(C)c2C)c1	inconclusive
CN(CC(=O)NCc1cccs1)S(=O)(=O)c1cccc2cccnc12	inconclusive
CC1(C(=O)NCc2cccnc2)CCC(=O)N1Cc1cccs1 (stereo not drawn)	inactive: 14%
CCOC(=O)N1CCC(NC(=O)c2cc3c(C)nc4ccccc4c3o2)CC1	inactive: -25%
COc1ccc(-c2nc3n(c(=O)c2C#N)CCCS3)cc1	inconclusive
CN=Cc1sc2ccccc2c1O	inconclusive
CCn1cc(C(=O)NC2CCCCCC2)c(=O)c2cc(S(=O)(=O)N3CCCCC3)ccc21	inconclusive
CCCCN(C)C(=O)c1coc(=O)c2ccccc12	inconclusive
Cn1c(=O)cc(SCC(=O)NCCCN2CCN(c3ccc(F)cc3)CC2)c2ccccc21	inconclusive
Cc1ccc(-n2c(C)nc3c(cnn3-c3ccc(F)cc3)c2=O)cc1	inconclusive
CN(C)C(=O)c1nnc(Cc2ccc(Cl)cc2)o1	inconclusive
Fc1ccccc1N1CCN(c2nc3ccccc3n3nnnc23)CC1	inconclusive
CCOC(=O)C1CCN(Cc2ccc(F)c(Br)c2)CC1	inconclusive
COc1cccc2sc(Nc3nnc(-c4ccc(F)cc4)o3)nc12	active: 90%
COc1ccc(N2CSC3=C(C#N)C(c4cccc(OC)c4OC)CC(=O)N3C2)cc1 (stereo not drawn)	inconclusive
O=C(O)c1cc(-c2cccs2)nc2cc3c(cc12)OCCO3	inconclusive
CCOC(=O)CNS(=O)(=O)c1c(C)noc1C	inconclusive
COc1ccc(S(=O)(=O)N2CCCC2C(=O)Nc2ccc(C(C)=O)cc2)cc1 (stereo not drawn)	inconclusive
Cc1ccccc1-n1c(=O)c2ccccc2n2nnnc12	inconclusive
Cn1c(=O)c2c(nc(Sc3n[nH]c(N)n3)n2Cc2ccccc2Cl)n(C)c1=O	inactive: 0%
O=C(c1ccccc1)c1ccc2nc(N3CCCCC3)c3nncn3c2c1	inconclusive
Cc1ccc(N2CCn3c2nc2c3c(=O)n(CCc3ccccc3)c(=O)n2C)cc1	inactive: 13%
CC1C(=O)C(C)C(c2ccc3c(c2)OCO3)NC1c1ccc2c(c1)OCO2 (stereo not drawn)	inconclusive
COc1ccc(C2=NOC(C(=O)Nc3cc(Br)ccc3O)C2)cc1OC (stereo not drawn)	inconclusive
CC1=C(C(N)=O)C(c2ccccc2)n2nc(-c3cccs3)nc2N1 (stereo not drawn)	inconclusive

SMILES	inhibition
COc1ccc(/C(O)=C(\C#N)c2nc3ccccc3n2C)cc1OC	inconclusive
CCN1CCCC1CNC(=O)c1cc2c(C)nc3ccccc3c2o1 (stereo not drawn)	inactive: -22%
Cc1cc(C(=O)Nc2ccc(S(=O)(=O)Nc3onc(C)c3C)cc2)cs1	inconclusive
COCCn1c(=S)[nH]c2cc(C(=O)N3CCN(Cc4ccc5c(c4)OCO5)CC3)ccc2c1=O	inconclusive
Cc1oc(-c2ccccc2F)nc1CS(=O)CC(=O)NCc1ccc2c(c1)OCO2 (stereo not drawn)	inconclusive
CC(=O)c1cccc(NC(=O)Nc2cc3sccc3n2C)c1	inconclusive
COc1cccc(NC(=O)C2CCCN(S(=O)(=O)c3cccc4nsnc34)C2)c1 (stereo not drawn)	inconclusive
CCOC(=O)N1CCN(c2c(NCc3ccccc3OC)c(=O)c2=O)CC1	inconclusive
COc1cccc(N2C(=O)C3CCCN3C2c2ccc(N(C)C)cc2)c1 (stereo not drawn)	inconclusive
Cc1sc2ncnc(Oc3ccc(-n4ccnc4)cc3)c2c1C	inactive: -10%
O=C(C1CCC1)N1CCc2cc(S(=O)(=O)NC3CCCC3)ccc21	inactive: -6%
CCN1CCN(CCCNC(=O)C(NC(=O)C2CCC(C)CC2)C(C)C)CC1 (stereo not drawn)	inconclusive
O=c1[nH]c2ccccc2n1CCCN1CCN(C(c2ccccc2)c2ccccc2)CC1	inactive: 26%
Cc1cc2c(cc1C)/C(=C\C(N)=O)NC(C)(C)C2	inconclusive
O=C(C1CC1)N1CCc2cc(Br)cc(S(=O)(=O)NCc3ccccn3)c21	inconclusive
CCC1CCCCN1CCCNC(=O)CC1Oc2ccccc2NC1=O (stereo not drawn)	inconclusive
COc1ccc(NC(=O)c2cc3cc(OC)ccc3oc2=N)cc1	inconclusive
COc1cc(-c2nc(-c3ccc(Br)o3)no2)cc(OC)c1OC	inconclusive
Cc1cccc(-n2c(SCc3cc(=O)n4ccsc4n3)nc3ccccc32)c1	inconclusive
CC1CCc2nc(N)c(C#N)c(-c3cccnc3)c2C1 (stereo not drawn)	inconclusive
CCOC(=O)Cn1c(=O)oc2cc(S(=O)(=O)N(C)Cc3ccco3)ccc21	inconclusive
O=C(NCC(c1cccnc1)N1CCN(c2ccc(F)cc2)CC1)c1ccc(F)cc1 (stereo not drawn)	inactive: 8.3%
CCCCCCC(c1c(C)n(C)n(-c2ccccc2)c1=O)c1c(C)n(C)n(-c2ccccc2)c1=O	inactive: 13%

Taken from above:
Cc1cc(C(=O)Nc2ccc(S(=O)(=O)Nc3onc(C)c3C)cc2)cs1 – inhibition: inconclusive
CCC1CCCCN1CCCNC(=O)CC1Oc2ccccc2NC1=O (stereo not drawn) – inhibition: inconclusive
Cc1sc2ncnc(Oc3ccc(-n4ccnc4)cc3)c2c1C – inhibition: inactive: -10%
